{"source": "patent US7666888B2", "about": "“Substituted azole aromatic heterocycles as inhibitors of 11β-HSD-1” (Amgen Inc., priority 2006, dated 2010)", "origin": "cited, not measured here", "tested_on": "animal models", "note": "For at least one compound, name, drawing or mass did not settle the structure.", "data": [{"molecule": "CC#C[C@]1(O)CC[C@H]2[C@@H]3CCC4=CC(=O)CCC4=C3[C@@H](c3ccc(N(C)C)cc3)C[C@@]21C", "note": "[RU486]", "values": [{"measurement": "restraint stress slows cutaneous wound healing and increases susceptibility to bacterial infection", "result": "reversed"}]}]}
